Test results published in article doi:10.1101/296517.
No constants are given. Whether binding was seen depends on the method and setting. In cells and extracts the contact can be indirect. Some entries that bind do so weakly or less than the wild type.

Amino acid sequences for entries named in this document (tags omitted).
UniProt P20340: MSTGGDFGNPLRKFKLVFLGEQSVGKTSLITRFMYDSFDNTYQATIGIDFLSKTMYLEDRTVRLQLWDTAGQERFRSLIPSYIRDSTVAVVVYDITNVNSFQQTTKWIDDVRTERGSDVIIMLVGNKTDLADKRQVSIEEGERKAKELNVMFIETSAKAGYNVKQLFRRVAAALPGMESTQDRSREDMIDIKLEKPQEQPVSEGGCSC
UniProt Q14789: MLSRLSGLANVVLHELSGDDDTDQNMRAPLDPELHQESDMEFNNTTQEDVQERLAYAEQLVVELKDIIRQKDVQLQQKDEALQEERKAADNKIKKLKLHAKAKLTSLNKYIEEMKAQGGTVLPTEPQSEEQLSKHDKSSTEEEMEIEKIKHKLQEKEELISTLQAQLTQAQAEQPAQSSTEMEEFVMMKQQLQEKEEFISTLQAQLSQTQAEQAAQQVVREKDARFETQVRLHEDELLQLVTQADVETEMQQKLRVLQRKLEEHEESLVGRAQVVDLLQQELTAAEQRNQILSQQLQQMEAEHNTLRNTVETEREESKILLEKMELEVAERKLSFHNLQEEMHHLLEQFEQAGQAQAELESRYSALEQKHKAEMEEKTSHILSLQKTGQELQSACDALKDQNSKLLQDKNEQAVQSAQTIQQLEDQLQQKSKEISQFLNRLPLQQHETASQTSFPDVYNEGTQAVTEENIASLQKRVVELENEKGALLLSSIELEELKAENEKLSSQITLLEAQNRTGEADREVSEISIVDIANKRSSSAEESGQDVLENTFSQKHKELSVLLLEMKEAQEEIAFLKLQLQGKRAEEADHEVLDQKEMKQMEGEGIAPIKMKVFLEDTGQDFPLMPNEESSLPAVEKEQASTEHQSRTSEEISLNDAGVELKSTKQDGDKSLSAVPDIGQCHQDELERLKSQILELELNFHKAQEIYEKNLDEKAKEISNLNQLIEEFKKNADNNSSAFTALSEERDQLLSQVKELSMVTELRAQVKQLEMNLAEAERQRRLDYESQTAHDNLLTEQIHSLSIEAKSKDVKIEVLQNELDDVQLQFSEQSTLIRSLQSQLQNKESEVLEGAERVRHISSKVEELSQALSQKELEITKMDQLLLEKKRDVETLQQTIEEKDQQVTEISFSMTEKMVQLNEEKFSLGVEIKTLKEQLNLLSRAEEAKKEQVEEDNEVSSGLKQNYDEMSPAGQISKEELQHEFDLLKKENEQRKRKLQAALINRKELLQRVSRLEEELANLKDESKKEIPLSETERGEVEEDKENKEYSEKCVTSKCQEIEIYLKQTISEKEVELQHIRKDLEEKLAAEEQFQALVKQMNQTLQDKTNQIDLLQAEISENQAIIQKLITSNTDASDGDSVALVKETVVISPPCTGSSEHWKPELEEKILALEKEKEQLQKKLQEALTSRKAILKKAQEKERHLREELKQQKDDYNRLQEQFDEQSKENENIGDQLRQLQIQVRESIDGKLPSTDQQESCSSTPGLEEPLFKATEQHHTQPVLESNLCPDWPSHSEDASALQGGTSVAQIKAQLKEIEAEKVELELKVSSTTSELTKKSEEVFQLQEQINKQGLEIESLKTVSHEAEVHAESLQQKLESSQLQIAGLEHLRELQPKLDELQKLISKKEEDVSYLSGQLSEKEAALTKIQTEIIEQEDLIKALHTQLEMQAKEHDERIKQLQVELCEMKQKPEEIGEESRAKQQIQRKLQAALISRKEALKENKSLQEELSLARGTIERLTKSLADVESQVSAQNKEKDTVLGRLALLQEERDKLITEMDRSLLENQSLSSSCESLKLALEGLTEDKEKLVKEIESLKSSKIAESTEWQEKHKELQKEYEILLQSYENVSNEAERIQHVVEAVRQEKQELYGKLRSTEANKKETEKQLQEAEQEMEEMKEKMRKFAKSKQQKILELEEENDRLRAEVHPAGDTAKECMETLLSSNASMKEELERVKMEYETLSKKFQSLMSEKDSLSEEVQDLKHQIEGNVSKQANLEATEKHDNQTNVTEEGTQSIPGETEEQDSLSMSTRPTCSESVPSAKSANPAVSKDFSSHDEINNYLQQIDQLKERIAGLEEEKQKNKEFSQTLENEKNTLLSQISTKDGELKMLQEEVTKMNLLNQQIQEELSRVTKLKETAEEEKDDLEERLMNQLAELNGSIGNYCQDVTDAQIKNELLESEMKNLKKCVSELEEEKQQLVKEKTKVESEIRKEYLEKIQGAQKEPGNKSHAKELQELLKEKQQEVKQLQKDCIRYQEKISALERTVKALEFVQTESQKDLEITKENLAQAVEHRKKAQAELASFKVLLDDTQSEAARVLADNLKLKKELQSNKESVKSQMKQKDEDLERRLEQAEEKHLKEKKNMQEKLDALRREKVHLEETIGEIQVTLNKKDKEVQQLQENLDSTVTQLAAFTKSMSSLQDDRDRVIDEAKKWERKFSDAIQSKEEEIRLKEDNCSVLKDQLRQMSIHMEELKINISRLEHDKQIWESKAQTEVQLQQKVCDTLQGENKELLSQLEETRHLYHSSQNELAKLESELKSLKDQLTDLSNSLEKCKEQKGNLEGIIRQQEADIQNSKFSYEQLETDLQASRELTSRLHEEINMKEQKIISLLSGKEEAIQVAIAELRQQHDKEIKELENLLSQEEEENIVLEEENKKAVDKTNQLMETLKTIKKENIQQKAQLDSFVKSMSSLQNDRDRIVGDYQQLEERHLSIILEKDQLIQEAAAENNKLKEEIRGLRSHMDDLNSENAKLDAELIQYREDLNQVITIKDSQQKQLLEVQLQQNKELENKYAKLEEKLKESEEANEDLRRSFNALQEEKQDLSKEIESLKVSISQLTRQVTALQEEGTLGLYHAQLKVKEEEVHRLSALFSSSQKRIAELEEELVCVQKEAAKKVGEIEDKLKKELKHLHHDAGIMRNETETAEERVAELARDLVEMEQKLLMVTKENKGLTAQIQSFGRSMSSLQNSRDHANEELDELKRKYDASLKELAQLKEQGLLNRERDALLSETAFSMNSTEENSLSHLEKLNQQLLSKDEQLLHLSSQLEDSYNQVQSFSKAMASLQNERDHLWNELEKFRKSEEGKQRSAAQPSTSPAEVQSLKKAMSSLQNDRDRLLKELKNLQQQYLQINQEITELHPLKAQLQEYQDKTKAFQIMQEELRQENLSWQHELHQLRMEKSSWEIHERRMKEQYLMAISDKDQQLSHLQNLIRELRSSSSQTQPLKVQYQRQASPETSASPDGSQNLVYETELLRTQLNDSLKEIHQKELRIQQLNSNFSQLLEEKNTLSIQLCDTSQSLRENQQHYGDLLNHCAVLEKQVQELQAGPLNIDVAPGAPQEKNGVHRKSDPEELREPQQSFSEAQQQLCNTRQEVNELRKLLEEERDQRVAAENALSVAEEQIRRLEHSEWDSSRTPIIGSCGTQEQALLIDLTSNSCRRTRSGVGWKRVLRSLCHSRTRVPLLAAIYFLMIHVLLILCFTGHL
UniProt P35579: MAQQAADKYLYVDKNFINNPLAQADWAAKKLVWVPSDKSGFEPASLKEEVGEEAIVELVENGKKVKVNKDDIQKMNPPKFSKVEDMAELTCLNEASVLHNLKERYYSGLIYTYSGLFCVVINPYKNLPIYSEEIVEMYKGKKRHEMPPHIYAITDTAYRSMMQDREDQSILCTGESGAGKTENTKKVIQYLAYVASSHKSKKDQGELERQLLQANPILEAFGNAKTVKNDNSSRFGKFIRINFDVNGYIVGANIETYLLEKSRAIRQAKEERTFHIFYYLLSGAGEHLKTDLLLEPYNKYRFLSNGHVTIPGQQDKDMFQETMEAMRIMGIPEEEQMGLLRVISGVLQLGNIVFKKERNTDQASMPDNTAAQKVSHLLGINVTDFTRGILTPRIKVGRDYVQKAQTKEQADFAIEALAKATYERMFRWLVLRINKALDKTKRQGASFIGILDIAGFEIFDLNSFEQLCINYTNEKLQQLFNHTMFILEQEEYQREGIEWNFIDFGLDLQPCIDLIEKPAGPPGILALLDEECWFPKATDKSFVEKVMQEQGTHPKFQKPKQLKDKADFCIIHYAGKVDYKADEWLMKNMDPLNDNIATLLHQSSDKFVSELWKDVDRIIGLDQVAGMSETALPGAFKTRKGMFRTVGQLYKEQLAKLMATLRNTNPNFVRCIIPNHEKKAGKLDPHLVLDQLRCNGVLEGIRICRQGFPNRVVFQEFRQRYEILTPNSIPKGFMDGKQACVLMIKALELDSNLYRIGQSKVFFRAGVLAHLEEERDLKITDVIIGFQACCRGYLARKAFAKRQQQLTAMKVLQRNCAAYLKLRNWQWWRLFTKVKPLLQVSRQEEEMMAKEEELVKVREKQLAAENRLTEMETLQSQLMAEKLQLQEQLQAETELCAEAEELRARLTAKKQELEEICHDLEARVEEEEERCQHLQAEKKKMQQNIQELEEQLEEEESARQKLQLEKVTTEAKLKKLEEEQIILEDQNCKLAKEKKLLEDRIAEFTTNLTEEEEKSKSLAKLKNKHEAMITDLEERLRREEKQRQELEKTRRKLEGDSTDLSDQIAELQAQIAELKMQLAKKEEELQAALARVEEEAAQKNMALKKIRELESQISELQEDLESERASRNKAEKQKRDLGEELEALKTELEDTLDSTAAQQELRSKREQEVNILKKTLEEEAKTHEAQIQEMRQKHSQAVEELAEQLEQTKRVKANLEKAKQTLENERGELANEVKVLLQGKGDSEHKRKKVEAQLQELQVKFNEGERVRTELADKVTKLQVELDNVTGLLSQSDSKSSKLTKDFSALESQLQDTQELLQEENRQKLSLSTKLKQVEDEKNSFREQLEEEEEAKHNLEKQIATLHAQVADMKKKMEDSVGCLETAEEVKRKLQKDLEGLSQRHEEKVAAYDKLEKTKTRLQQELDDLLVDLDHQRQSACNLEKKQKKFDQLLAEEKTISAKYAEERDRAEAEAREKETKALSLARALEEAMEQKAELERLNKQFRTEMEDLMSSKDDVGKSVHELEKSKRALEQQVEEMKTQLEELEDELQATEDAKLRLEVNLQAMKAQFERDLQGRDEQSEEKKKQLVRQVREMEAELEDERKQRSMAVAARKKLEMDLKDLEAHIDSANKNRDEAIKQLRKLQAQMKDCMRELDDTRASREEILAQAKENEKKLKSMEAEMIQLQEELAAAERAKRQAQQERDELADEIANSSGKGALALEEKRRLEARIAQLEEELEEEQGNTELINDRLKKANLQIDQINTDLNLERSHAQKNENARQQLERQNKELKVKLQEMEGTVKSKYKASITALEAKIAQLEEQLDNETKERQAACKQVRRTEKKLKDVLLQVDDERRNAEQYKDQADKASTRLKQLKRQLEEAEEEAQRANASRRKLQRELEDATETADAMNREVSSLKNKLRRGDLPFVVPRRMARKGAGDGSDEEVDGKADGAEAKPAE

Key:
[1] = biological target: Rab6a GTPase (human (endogenous in LNCaP)) (UniProt P20340); test: co-IP
[2] = biological target: giantin (human (endogenous in HeLa, LNCaP, PC-3, liver tissue)) (UniProt Q14789); test: co-IP
[3] = biological target: T1, biotin-MLKKQS peptide that matches CT of MGAT1 (human); test: pull-down
T1 sequence (peptide, biotin on the N-terminus): MLKKQS

Row | binding [1] | binding [2] | binding [3] | Substance
1 | binds | – | – | non-muscle Myosin IIA (NMIIA) (from UniProt P35579 1-1960)
2 | – | binds | – | Rab6a GTPase (from UniProt P20340 1-208)
3 | binds | – | binds | giantin (from UniProt Q14789 1-3259)
